Consider three molecules from PMC3379943.

By UniProt entry, the sequences of proteins in these tests, tags left out. Residues count along the entry.
UniProt P98156, residues 28-873: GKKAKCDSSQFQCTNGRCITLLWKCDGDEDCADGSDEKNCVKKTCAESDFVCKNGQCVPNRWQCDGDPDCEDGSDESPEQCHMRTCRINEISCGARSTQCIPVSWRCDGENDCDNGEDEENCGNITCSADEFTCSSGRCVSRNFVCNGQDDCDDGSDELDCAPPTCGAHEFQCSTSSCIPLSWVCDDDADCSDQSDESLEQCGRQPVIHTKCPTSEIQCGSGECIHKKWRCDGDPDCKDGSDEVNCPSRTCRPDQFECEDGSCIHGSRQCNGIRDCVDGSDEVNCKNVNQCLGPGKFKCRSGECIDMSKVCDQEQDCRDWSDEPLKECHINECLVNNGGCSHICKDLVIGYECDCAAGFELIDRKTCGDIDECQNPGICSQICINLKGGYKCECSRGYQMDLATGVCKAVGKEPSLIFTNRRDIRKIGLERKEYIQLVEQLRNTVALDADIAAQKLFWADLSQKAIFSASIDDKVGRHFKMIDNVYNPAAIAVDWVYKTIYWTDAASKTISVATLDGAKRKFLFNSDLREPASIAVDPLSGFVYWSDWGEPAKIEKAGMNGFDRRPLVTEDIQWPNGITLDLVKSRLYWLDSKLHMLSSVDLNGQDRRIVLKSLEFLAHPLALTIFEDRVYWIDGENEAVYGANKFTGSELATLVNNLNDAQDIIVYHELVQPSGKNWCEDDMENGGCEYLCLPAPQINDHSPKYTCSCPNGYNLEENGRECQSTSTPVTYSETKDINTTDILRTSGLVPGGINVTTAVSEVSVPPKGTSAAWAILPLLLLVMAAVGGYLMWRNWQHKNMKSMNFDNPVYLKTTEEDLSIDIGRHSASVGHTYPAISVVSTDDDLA

One test has as its target full length VLDLR-myc (UniProt P98155). In words: co-IP; COS7 cells co-transfected with VLDLR and FE65 constructs; cell lysates (100-200 ug) immunoprecipitated by the tag or 5F3 (anti-HA, anti-myc, 5F3, anti-GFP) and the precipitate probed for the other protein's tag.
Test [1] deals with full length VLDLR (HA-tagged on the C terminal) (UniProt P98155). The description is as above.
Test [2] deals with VLDLR, endogenous in mouse brain (mouse (endogenous in brain)) (UniProt P98156). Description: co-IP; mouse whole brain lysates (100 ug), IP buffer 50 mM Tris-HCl pH 8.0, 0.15 M NaCl, 1% Nonidet P-40, overnight at 4°C with antibody (5F3, anti-FE65 or C1/6.1; IgG as control) and protein G-Sepharose; also lysates of 13 month old FE65 knockout mice against wild-type littermates (APP band with VLDLR decreased).

These are yes or no findings as the source states them, for the method shown. In cells and extracts the contact can be indirect. Some binding calls cover weakened binding; strength is not graded here. For part of these data: Sequences can lack the tags named with a protein.

B1: full length FE65-GFP (protein, UniProt O00213 1-710)
chain: MSVPSSLSQSAINANSHGGPALSLPLPLHAAHNQLLNAKLQATAVGPKDLRSAMGEGGGPEPGPANAKWLKEGQNQLRRAATAHRDQNRNVTLTLAEEASQEPEMAPLGPKGLIHLYSELELSAHNAANRGLRGPGLIISTQEQGPDEGEEKAAGEAEEEEEDDDDEEEEEDLSSPPGLPEPLESVEAPPRPQALTDGPREHSKSASLLFGMRNSAASDEDSSWATLSQGSPSYGSPEDTDSFWNPNAFETDSDLPAGWMRVQDTSGTYYWHIPTGTTQWEPPGRASPSQGSSPQEESQLTWTGFAHGEGFEDGEFWKDEPSDEAPMELGLKEPEEGTLTFPAQSLSPEPLPQEEEKLPPRNTNPGIKCFAVRSLGWVEMTEEELAPGRSSVAVNNCIRQLSYHKNNLHDPMSGGWGEGKDLLLQLEDETLKLVEPQSQALLHAQPIISIRVWGVGRDSGRERDFAYVARDKLTQMLKCHVFRCEAPAKNIATSLHEICSKIMAERRNARCLVNGLSLDHSKLVDVPFQVEFPAPKNELVQKFQVYYLGNVPVAKPVGVDVINGALESVLSSSSREQWTPSHVSVAPATLTILHQQTEAVLGECRVRFLSFLAVGRDVHTFAFIMAAGPASFCCHMFWCEPNAASLSEAVQAACMLRYQKCLDARSQASTSCLPAPPAESVARRVGWTVRRGVQSLWGSLKPKRLGAHTP
As to B1, the binding entry with full length VLDLR-myc is reported as “binds”.

B2: full length FE65 (myc-tagged on the C terminal) (protein, UniProt O00213 1-710)
chain: MSVPSSLSQSAINANSHGGPALSLPLPLHAAHNQLLNAKLQATAVGPKDLRSAMGEGGGPEPGPANAKWLKEGQNQLRRAATAHRDQNRNVTLTLAEEASQEPEMAPLGPKGLIHLYSELELSAHNAANRGLRGPGLIISTQEQGPDEGEEKAAGEAEEEEEDDDDEEEEEDLSSPPGLPEPLESVEAPPRPQALTDGPREHSKSASLLFGMRNSAASDEDSSWATLSQGSPSYGSPEDTDSFWNPNAFETDSDLPAGWMRVQDTSGTYYWHIPTGTTQWEPPGRASPSQGSSPQEESQLTWTGFAHGEGFEDGEFWKDEPSDEAPMELGLKEPEEGTLTFPAQSLSPEPLPQEEEKLPPRNTNPGIKCFAVRSLGWVEMTEEELAPGRSSVAVNNCIRQLSYHKNNLHDPMSGGWGEGKDLLLQLEDETLKLVEPQSQALLHAQPIISIRVWGVGRDSGRERDFAYVARDKLTQMLKCHVFRCEAPAKNIATSLHEICSKIMAERRNARCLVNGLSLDHSKLVDVPFQVEFPAPKNELVQKFQVYYLGNVPVAKPVGVDVINGALESVLSSSSREQWTPSHVSVAPATLTILHQQTEAVLGECRVRFLSFLAVGRDVHTFAFIMAAGPASFCCHMFWCEPNAASLSEAVQAACMLRYQKCLDARSQASTSCLPAPPAESVARRVGWTVRRGVQSLWGSLKPKRLGAHTP
For the molecule B2, in test [1], the binding result is on record as “binds”.

B3: FE65, endogenous in mouse brain (protein, UniProt Q9QXJ1 1-710)
chain: MSVPSSLSQSAINANSHGGPALSFPLPLHAAHNQLLNAKLQATAVVPKDLRSAMGEGSVPEPGPANAKWLKEGQNQLRRAATAHRDQNRNVTLTLAEEASQEAETAPLGPKGLMHLYSELELSAHNAANRGLHGSALIINTQEQGPDEGEEKAAGEAEEDDEDEEEEEEEEDLSSPPGLPEPLENVEVPSGPQALTDGPREHSKSASLLFGMRNSAASDEDSSWATLSQGSPSYGSPEDTDSFWNPNAFETDSDLPAGWMRVQDTSGTYYWHIPTGTTQWEPPGRASPSQGSSPQEESQLTWTGFAHQEGFEEGEFWKDEPSEEAPMELGLKDPEEATLSFPAQSLSPEPVPQEEEKLSQRNANPGIKCFAVRSLGWVEMTEEELAPGRSSVAVNNCIRQLSYHKNNLHDPMAGGWGEGKDLLLQLEDETLKLVEPQNQTLLHAQPIVSIRVWGVGRDSGSNRDFAYVARDKLTQMLKCHVFRCEAPAKNIATSLHEICSKIMSERRNARCLVNGLSLDHSKLVDVPFQVEFPAPKNELVQKFQVYYLGNVPVAKPVGVDVINGALESVLSSSSREQWTPSHVSVAPATLTILHQQTEAVLGECRVRFLSFLAVGRDVHTFAFIMAAGPASFCCHMFWCEPNAASLSEAVQAACMLRYQKCLDARSQTSTSCLPAPPAESVARRVGWTVRRGVQSLWGSLKPKRLGSQTP
Consider B3, for which the binding result in test [2] is “binds”.
